These results are taken from publication PMC4022642.

Results are given in words; binding and its absence hold for the method and conditions named. Binding seen in cells or lysates may run through a third protein. For some assays here: A result given as binding can be weak or reduced; the word gives no strength. Where a sequence is shown, tags or fusion partners need not be part of it.

The target of assay [1] is T1, GST-human TRESK 256-271-Gln10His8 (human).
T1 sequence: LVLGRLSYSIISNLDE
Kind of assay: pull-down; GST-peptide-Gln10His8 fusions on Ni-NTA resin; mouse brain cytosol; SDS-PAGE; only the target purified.

For assay [2], the target named is T2, TRESK-loop-His8 (amino acids 185-292 of mouse TRESK) (mouse) (UniProt Q6VV64).
T2 sequence: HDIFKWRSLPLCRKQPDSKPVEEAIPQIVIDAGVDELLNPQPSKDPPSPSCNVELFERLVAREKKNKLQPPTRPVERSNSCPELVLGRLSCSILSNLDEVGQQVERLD
Put plainly: pull-down; mouse TRESK-loop-His8 on Ni-NTA resin; mouse brain cytosol; no BSA blocking, cytosol not depleted on resin; SDS-PAGE, Coomassie; only the target purified.

The target of assay [3] is T3, GST fusion of human TRESK fragment 247-280 (human) (UniProt Q7Z418).
T3 sequence: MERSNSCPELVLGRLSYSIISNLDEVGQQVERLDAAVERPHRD
Put plainly: pull-down; GST fusion proteins on glutathione agarose; mouse brain cytosol, 1 h at 4°C in solution A without imidazole; wash with 1 M NaCl; SDS-PAGE or SDTHS-PAGE, Coomassie; only the target purified.

The target in assay [4] is T4, GST fusion of human TRESK fragment 256-275 (human) (UniProt Q7Z418).
T4 sequence: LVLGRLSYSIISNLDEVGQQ
The description is as above.

Assay [5] concerns the target T5, GST fusion of human TRESK fragment 174-231 (human) (UniProt Q7Z418).
T5 sequence: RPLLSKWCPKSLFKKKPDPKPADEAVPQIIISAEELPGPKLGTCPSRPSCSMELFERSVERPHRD
The description is as above.

Assay [6] addresses T6, GST fusion of human TRESK cytoplasmic loop (amino acids 174-280) (human) (UniProt Q7Z418).
T6 sequence: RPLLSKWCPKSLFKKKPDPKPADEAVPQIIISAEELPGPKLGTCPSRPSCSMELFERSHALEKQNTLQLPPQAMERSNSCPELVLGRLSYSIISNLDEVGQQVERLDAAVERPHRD
The assay is described as above.

The target in assay [7] is T7, GST fusion of human TRESK fragment 174-247 (human) (UniProt Q7Z418).
T7 sequence: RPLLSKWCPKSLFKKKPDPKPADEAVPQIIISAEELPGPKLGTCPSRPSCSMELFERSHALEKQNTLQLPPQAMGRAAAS
Described as above.

For assay [8], the target named is T8, GST fusion of human TRESK fragment 204-280 (human) (UniProt Q7Z418).
T8 sequence: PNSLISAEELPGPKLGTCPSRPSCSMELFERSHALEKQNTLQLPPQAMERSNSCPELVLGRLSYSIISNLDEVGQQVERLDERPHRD
The assay is described as above.

For assay [9], the target named is T9, GST fusion of human TRESK fragment 232-280 (human) (UniProt Q7Z418).
T9 sequence: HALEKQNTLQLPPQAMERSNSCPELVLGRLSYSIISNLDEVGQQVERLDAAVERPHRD
The assay is described as above.

The target of assay [10] is T10, GST fusion of human TRESK fragment 256-280 (human) (UniProt Q7Z418).
T10 sequence: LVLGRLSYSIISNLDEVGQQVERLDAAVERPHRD
The description is as above.

The target in assay [11] is T11, GST fusion of human TRESK fragment 218-247 (human) (UniProt Q7Z418).
T11 sequence: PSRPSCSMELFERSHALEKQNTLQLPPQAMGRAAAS
The description is as above.

The target of assay [12] is T12, GST fusion of human TRESK fragment 256-271 (human).
T12 sequence: LVLGRLSYSIISNLDE
The assay is described as above.

The target in assay [13] is T13, GST fusion of human TRESK fragment 256-267 (human).
T13 sequence: LVLGRLSYSIIS
Described as above.

In assay [14] the target is T14, human TRESK-loop-His8 (amino acids 174-280) (human) (UniProt Q7Z418).
T14 sequence: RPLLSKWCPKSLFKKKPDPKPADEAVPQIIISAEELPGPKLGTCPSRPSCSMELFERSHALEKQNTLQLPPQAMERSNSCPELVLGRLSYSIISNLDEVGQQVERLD
Kind of assay: pull-down; human TRESK-loop-His8 on Ni-NTA resin, with or without PKA phosphorylation, preloaded with E. coli supernatant holding untagged 14-3-3η (not removed), then mouse brain cytosol; solution A with 50 mM NaF, PNPP, leupeptin, orthovanadate, cyclosporin A and FK506; SDS-PAGE; only the target purified.

Regarding tubulin (mouse brain cytosol) (complex), the binding entry in assay [1], in assay [2], in assay [3], in [4], in [5] and in assay [6] was “binds” throughout. Also, the binding result is “binds” in assay [7]; “binds” in [8]; “binds” in assay [9]; “binds” in assay [10]; “no binding” in [11]; “binds” in [12]. The binding entry in assay [13] and in assay [14] was “binds” each time.
